Reference: the supplement of paper PMC4635364
Counter-ions that a name gives are not always drawn. The list shows a part of the results. This data set is noisy: repeats of one test often differ as much as different tests do.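 Human fetal ventral-midbrain neural progenitor line ReNCell VM, differentiated without mitogens. Images stained for doublecortin (early neurons) or tyrosine hydroxylase (dopaminergic neurons) were scored by blinded raters against untreated wells (0 = no change). Repeats and both raters were averaged, and compounds averaging 2 or higher were picked as hits for retesting.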

Tests used:
[1] = system: ReNCell VM; assay: neuronal differentiation score (DCX+ cell fraction vs untreated, manual image score) (score (-3 to 3)); higher = more neuronal differentiation; details: 2 uM, 2 weeks
[2] = system: ReNCell VM; assay: dopaminergic neuron differentiation score (TH+ cell fraction vs untreated, manual image score) (score (0 to 3)); higher = more TH+ dopaminergic neuron differentiation; details: 2 uM, 4 weeks, BDNF 10 ng/ml + GDNF 10 ng/ml

CCC1=C[C@H]2CN3CCc4c([nH]c5ccccc45)[C@](C(=O)OC)(C2)[C@H]13 [Catharanthine]
inactive: neuronal differentiation score ([1]; library: Phytochemical) 0 | neuronal differentiation score ([1]; library: Prestwick) 0 | dopaminergic neuron differentiation score ([2]; library: Phytochemical) 0 | dopaminergic neuron differentiation score ([2]; library: Prestwick) 0

C=C(C)[C@@H]1[C@H]2OC(=O)[C@@H]1[C@]1(O)C[C@H]3O[C@]34C(=O)O[C@H]2[C@]14C [Picrotoxinin]
inactive: neuronal differentiation score ([1]; library: Phytochemical) 0 | neuronal differentiation score ([1]; library: Prestwick) 0 | dopaminergic neuron differentiation score ([2]; library: Phytochemical) 0 | dopaminergic neuron differentiation score ([2]; library: Prestwick) 0

CC(C)C[C@H]1C(=O)N2CCC[C@H]2[C@]2(O)O[C@](NC(=O)[C@@H]3C=C4c5cccc6[nH]c(Br)c(c56)C[C@H]4N(C)C3)(C(C)C)C(=O)N12 [Bromocryptine mesylate]
inactive: neuronal differentiation score ([1]; library: Phytochemical) 0 | neuronal differentiation score ([1]; library: Prestwick) 0 | dopaminergic neuron differentiation score ([2]; library: Phytochemical) 0 | dopaminergic neuron differentiation score ([2]; library: Prestwick) 0

c1ccc2nc(N3CCNCC3)ccc2c1 [Quipazine dimaleate]
inactive: neuronal differentiation score ([1]; library: LOPAC) 0 | neuronal differentiation score ([1]; library: Tocriscreen) 0 | dopaminergic neuron differentiation score ([2]; library: LOPAC) 0 | dopaminergic neuron differentiation score ([2]; library: Tocriscreen) 0

CNC(=O)Oc1ccc2c(c1)[C@]1(C)CCN(C)[C@@H]1N2C [Eserine sulfate, physostigmine sulfate]
inactive: neuronal differentiation score ([1]; library: Phytochemical) 1 | neuronal differentiation score ([1]; library: Prestwick) 0 | dopaminergic neuron differentiation score ([2]; library: Phytochemical) 0 | dopaminergic neuron differentiation score ([2]; library: Prestwick) 0

CC[C@@]1(O)C(=O)OCc2c1cc1n(c2=O)Cc2cc3ccccc3nc2-1 [Camptothecine (S,+)]
inactive: neuronal differentiation score ([1]; library: Phytochemical) 0 | neuronal differentiation score ([1]; library: Prestwick) 0 | dopaminergic neuron differentiation score ([2]; library: Phytochemical) 0 | dopaminergic neuron differentiation score ([2]; library: Prestwick) 0

CC(Cc1ccc(O)cc1)NCC(O)c1cc(O)cc(O)c1 (centres undefined) [Fenoterol hydrobromide]
inactive: neuronal differentiation score ([1]; library: LOPAC) 0 | neuronal differentiation score ([1]; library: Prestwick) 0 | dopaminergic neuron differentiation score ([2]; library: LOPAC) 0 | dopaminergic neuron differentiation score ([2]; library: Prestwick) 0

Fc1ccc(C(OCCN2CCN(CCCc3ccccc3)CC2)c2ccc(F)cc2)cc1
inactive: neuronal differentiation score ([1]; library: LOPAC) 0 | neuronal differentiation score ([1]; library: Prestwick) 0 | neuronal differentiation score ([1]; library: Tocriscreen) 0 | dopaminergic neuron differentiation score ([2]; library: LOPAC) 0 | dopaminergic neuron differentiation score ([2]; library: Prestwick) 0 | dopaminergic neuron differentiation score ([2]; library: Tocriscreen) 0
